In one series the test system is Lemna minor. Description: L. minor growth inhibition test. As for the experimental part:
All tests were carried out in accordance with the OECD or ISO guidelines. In general the experimental part was divided into three main steps: (i) determination of the toxicity of the native forms of pharmaceuticals (their racemic mixtures), (ii) toxicity evaluation of the selected TPs of these pharmaceuticals, and (iii) preliminary toxicity assessment of the enantiomers of selected pharmaceuticals. For each assay, range-finding tests were conducted, in order to determine the range of concentrations for the definitive tests. The main tests were repeated three times in at least two parallel replicates, with a minimum of five concentrations for native forms of the selected pharmaceuticals (including their enantiomers). The exact number of replicates and concentrations tested was included in the description of each test. […] However, TPs were tested in a different manner; first, the tests were carried out at the limit concentration of 100 mg L^−1. […]
One week before the assay, the inoculum cultures were prepared; eight healthy plants were placed into a new portion of the medium. […] The test started with one plant consisting of three fronds and the measured endpoint was the inhibition of growth rate determined by comparing the frond area (mm^2) for the treated plants and untreated controls.

The next series has as its system aquatic organisms. The following applies: for the organisms named in the sentence.
The subject of another series is Arthrobacter globiformis. Put plainly: A. globiformis dehydrogenase inhibition test (version without soil). The conditions noted are these: read-out: EC50 A. globiformis. As for the experimental part:
All tests were carried out in accordance with the OECD or ISO guidelines. In general the experimental part was divided into three main steps: (i) determination of the toxicity of the native forms of pharmaceuticals (their racemic mixtures), (ii) toxicity evaluation of the selected TPs of these pharmaceuticals, and (iii) preliminary toxicity assessment of the enantiomers of selected pharmaceuticals. For each assay, range-finding tests were conducted, in order to determine the range of concentrations for the definitive tests. The main tests were repeated three times in at least two parallel replicates, with a minimum of five concentrations for native forms of the selected pharmaceuticals (including their enantiomers). The exact number of replicates and concentrations tested was included in the description of each test. […]
The test strain was obtained from the German Collection of Microorganisms (DSMZ). […] Finally, the dehydrogenase activity was determined by measuring the formation of resorufin from resazurine using a fluorimeter ([…]). Dehydrogenase inhibition was calculated using Eq. 1.
where FBTS is the measured fluorescence of the blank (medium) with the tested substance, FTS is the measured fluorescence of the sample, FBNC is the measured fluorescence of the blank, and FNC is the measured fluorescence of the negative control (with bacteria).

A further series concerns R. subcapitata. The following applies: ref Romanucci et al. (2019); cited from earlier work.
In a further series the test system is Vibrio fischeri. Put plainly: microbe, parasite or virus in culture. The series is classed as cell-based. The following applies: Aliivibrio fischeri. As for the experimental part: (§1) Stock solutions and dilutions were prepared in 2% NaCl in 0.02 M phosphate buffer, pH 7. The freeze-dried bacteria were rehydrated prior to testing in a reactivation solution. Culture suspensions and diluted samples were pre-incubated at 15 °C for 15 min. After the initial luminescence was measured, 0.5 mL of the culture suspension was mixed with the same volume of a diluted sample. The final bioluminescence was measured after 30 min. Incubation was kept at 15 °C (LUMIStox 300 meter, Dr. Lange GmbH, Berlin, Germany). The relative toxicity of the samples was expressed as a percentage of luminescence inhibition compared to the controls.
as §1, with “m,” for “meter,”

The test system of the next series is Raphidocelis subcapitata. Put plainly: R. subcapitata reproduction (growth) inhibition test. In kind it is cell-based. On the procedure:
All tests were carried out in accordance with the OECD or ISO guidelines. In general the experimental part was divided into three main steps: (i) determination of the toxicity of the native forms of pharmaceuticals (their racemic mixtures), (ii) toxicity evaluation of the selected TPs of these pharmaceuticals, and (iii) preliminary toxicity assessment of the enantiomers of selected pharmaceuticals. For each assay, range-finding tests were conducted, in order to determine the range of concentrations for the definitive tests. The main tests were repeated three times in at least two parallel replicates, with a minimum of five concentrations for native forms of the selected pharmaceuticals (including their enantiomers). The exact number of replicates and concentrations tested was included in the description of each test. […] However, TPs were tested in a different manner; first, the tests were carried out at the limit concentration of 100 mg L^−1. […] Such approach was applied in order to observe the relative toxicity of the selected TP and its native form. […]
Test organisms were provided from Algal Culture Collection (Universität Göttingen, Germany). […] Growth inhibition was calculated using the cell counts of the treated samples in relation to the untreated controls after 72 h of exposure. The cells were counted with the use of CASY TT Cell counter & analyzer.

The subject of the next series is D. magna. The conditions noted are these: cited from earlier work.
In a further series the test system is Daphnia magna. Description: D. magna acute immobilization test. The series is classed as in vivo. The conditions noted are these: 48 h, read-out: EC50 D. magna (with confidence interval 2.5–97.5%). On the procedure:
All tests were carried out in accordance with the OECD or ISO guidelines. In general the experimental part was divided into three main steps: (i) determination of the toxicity of the native forms of pharmaceuticals (their racemic mixtures), (ii) toxicity evaluation of the selected TPs of these pharmaceuticals, and (iii) preliminary toxicity assessment of the enantiomers of selected pharmaceuticals. For each assay, range-finding tests were conducted, in order to determine the range of concentrations for the definitive tests. The main tests were repeated three times in at least two parallel replicates, with a minimum of five concentrations for native forms of the selected pharmaceuticals (including their enantiomers). The exact number of replicates and concentrations tested was included in the description of each test. […] However, TPs were tested in a different manner; first, the tests were carried out at the limit concentration of 100 mg L^−1. […] Such approach was applied in order to observe the relative toxicity of the selected TP and its native form.
Dose-response curves were fitted using a linear logistic or logistic model (the model giving the best fit was chosen) (https://cran.r-project.org/web/packages/drfit/drfit.pdf). The mathematic formulas applied for this purpose are presented and described in the Supplementary Material. […]

Broadly, the EC50 is the concentration at which the effect is half-maximal. As a reminder, the inhibition is the drop in the measured response relative to a control, in per cent.

In brackets after ≈: the same amount, converted by molar mass.

`COc1cccc(C2(O)CCCCC2CN(C)C)c1` (stereo not drawn) [TRA, Tramadol]: the EC50 was more than 100 µg/mL in the series on Lemna minor (168 h, read-out: EC50 L. minor (with confidence interval 2.5–97.5%)); more than 100 µg/mL with Arthrobacter globiformis; more than 100 µg/mL in the series with Vibrio fischeri (0.5 h, read-out: EC50 V. fischeri (with confidence interval 2.5–97.5%)); 58.7 µg/mL (≈ 223 µM) in the series on Raphidocelis subcapitata (72 h, read-out: EC50 R. subcapitata (with confidence interval 2.5–97.5%)); 69.7 µg/mL (≈ 265 µM) in the series with Daphnia magna. The inhibition at 100 µg/mL with Lemna minor (read-out: Growth inhibition of L. minor) worked out at 2%; in the series with Vibrio fischeri (read-out: Luminescence inhibition), 1%; in the series on Raphidocelis subcapitata (read-out: Growth inhibition of R. subcapitata), 93%. Besides, in the series with aquatic organisms, the “classification on the basis of EC50 values (EC 93/67/EEC)” value was “harmful”. The “EC50 R. subcapitata” value with R. subcapitata is 87.1 mg/L (≈ 331 µM). Also, in the series on D. magna (24 h, ref Romanucci et al. (2019)), the “EC50, 24h D. magna” value was 88.5 mg/L (≈ 336 µM). Besides, in the series with D. magna (ref Le et al. (2011)), the “EC50 D. magna” value was 170 mg/L (≈ 645 µM).

Values taken from paper PMC7332481, “Ecotoxicity screening evaluation of selected pharmaceuticals and their transformation products towards various organisms” (Environmental Science and Pollution Research International, 2020).
